Source: article doi:10.64898/2025.12.02.691892
These are yes or no findings as the source states them, for the method shown. In cells and extracts the contact can be indirect. Some binding calls cover weakened binding; strength is not graded here.

Protein sequences, listed by entry. Tags and fused reporters are not part of them.
UniProt Q15910: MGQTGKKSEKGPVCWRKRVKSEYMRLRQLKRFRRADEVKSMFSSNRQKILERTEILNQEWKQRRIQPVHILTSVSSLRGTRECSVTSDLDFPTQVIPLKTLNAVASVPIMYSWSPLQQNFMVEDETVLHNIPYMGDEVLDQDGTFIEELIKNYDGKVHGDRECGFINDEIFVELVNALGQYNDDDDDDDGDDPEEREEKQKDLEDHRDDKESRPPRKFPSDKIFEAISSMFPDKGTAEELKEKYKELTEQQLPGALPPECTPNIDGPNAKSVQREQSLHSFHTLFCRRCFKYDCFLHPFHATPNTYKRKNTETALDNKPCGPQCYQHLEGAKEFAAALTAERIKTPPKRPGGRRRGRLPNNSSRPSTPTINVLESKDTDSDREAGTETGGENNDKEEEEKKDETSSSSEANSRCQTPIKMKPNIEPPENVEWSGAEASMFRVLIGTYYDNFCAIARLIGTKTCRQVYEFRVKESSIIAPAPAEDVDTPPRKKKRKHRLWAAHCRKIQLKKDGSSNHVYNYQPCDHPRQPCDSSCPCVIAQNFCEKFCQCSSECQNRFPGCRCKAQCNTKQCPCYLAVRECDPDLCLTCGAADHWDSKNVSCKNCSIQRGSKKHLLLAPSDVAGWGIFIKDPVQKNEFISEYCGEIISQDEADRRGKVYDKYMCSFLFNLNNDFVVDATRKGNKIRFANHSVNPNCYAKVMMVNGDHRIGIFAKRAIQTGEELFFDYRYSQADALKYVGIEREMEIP
UniProt Q12905: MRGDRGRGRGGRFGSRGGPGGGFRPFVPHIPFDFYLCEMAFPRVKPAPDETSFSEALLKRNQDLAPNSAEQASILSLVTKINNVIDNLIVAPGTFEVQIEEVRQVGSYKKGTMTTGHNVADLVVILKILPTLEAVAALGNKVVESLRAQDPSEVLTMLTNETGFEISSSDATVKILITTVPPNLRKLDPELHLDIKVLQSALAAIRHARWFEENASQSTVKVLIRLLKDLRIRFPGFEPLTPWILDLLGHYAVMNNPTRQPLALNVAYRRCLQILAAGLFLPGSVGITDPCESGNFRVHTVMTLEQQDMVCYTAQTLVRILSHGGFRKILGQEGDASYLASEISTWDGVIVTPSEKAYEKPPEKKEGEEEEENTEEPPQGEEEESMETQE

Target: endogenous EZH2 (Enhancer of Zeste Homolog 2) (human (endogenous in LNCaP, LNCaP-abl, C4-2B, 22Rv1)) (UniProt Q15910)
Experiment: co-IP

binding	Molecule
binds	endogenous NF45 (nuclear factor 45) (from UniProt Q12905 1-390)
binds	endogenous NF110 (protein, UniProt Q12906 1-894) MRPMRIFVNDDRHVMAKHSSVYPTQEELEAVQNMVSHTERALKAVSDWIDEQEKGSSEQAESDNMDVPPEDDSKEGAGEQKTEHMTRTLRGVMRVGLVAKGLLLKGDLDLELVLLCKEKPTTALLDKVADNLAIQLAAVTEDKYEILQSVDDAAIVIKNTKEPPLSLTIHLTSPVVREEMEKVLAGETLSVNDPPDVLDRQKCLAALASLRHAKWFQARANGLKSCVIVIRVLRDLCTRVPTWGPLRGWPLELLCEKSIGTANRPMGAGEALRRVLECLASGIVMPDGSGIYDPCEKEATDAIGHLDRQQREDITQSAQHALRLAAFGQLHKVLGMDPLPSKMPKKPKNENPVDYTVQIPPSTTYAITPMKRPMEEDGEEKSPSKKKKKIQKKEEKAEPPQAMNALMRLNQLKPGLQYKLVSQTGPVHAPIFTMSVEVDGNSFEASGPSKKTAKLHVAVKVLQDMGLPTGAEGRDSSKGEDSAEETEAKPAVVAPAPVVEAVSTPSAAFPSDATAEQGPILTKHGKNPVMELNEKRRGLKYELISETGGSHDKRFVMEVEVDGQKFQGAGSNKKVAKAYAALAALEKLFPDTPLALDANKKKRAPVPVRGGPKFAAKPHNPGFGMGGPMHNEVPPPPNLRGRGRGGSIRGRGRGRGFGGANHGGYMNAGAGYGSYGYGGNSATAGYSQFYSNGGHSGNASGGGGGGGGGSSGYGSYYQGDNYNSPVPPKHAGKKQPHGGQQKPSYGSGYQSHQGQQQSYNQSPYSNYGPPQGKQKGYNHGQGSYSYSNSYNSPGGGGGSDYNYESKFNYSGSGGRSGGNSYGSGGASYNPGSHGGYGGGSGGGSSYQGKQGGYSQSNYNSPGSGQNYSGPPSSYQSSQGGYGRNADHSMNYQYR
